{"sequences": {"note": "Chains of the proteins cited; added tags and fusions are not shown. Lines headed by an entry give the natural chain unless they say otherwise; changes in a name come on top.", "UniProt Q9UNA4": "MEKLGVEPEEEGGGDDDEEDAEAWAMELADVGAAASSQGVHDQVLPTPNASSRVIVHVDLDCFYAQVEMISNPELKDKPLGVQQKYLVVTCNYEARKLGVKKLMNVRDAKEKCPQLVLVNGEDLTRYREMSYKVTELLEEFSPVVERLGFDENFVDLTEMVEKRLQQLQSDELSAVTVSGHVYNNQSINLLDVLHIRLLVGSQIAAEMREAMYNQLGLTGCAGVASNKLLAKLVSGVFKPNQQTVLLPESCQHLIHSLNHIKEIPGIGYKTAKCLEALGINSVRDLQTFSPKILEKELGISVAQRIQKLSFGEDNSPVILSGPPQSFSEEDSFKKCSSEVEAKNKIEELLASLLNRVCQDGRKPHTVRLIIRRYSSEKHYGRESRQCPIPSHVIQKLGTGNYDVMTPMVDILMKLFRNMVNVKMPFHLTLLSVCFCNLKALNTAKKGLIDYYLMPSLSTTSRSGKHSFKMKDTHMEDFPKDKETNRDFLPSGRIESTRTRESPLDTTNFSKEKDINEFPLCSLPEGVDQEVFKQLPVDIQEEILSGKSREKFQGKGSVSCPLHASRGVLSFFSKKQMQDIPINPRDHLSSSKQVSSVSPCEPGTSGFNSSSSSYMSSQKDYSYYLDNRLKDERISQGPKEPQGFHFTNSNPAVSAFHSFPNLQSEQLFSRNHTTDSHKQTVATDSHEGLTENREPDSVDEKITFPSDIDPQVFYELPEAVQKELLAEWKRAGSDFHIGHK"}, "source": "PubChem BioAssay AID588590", "about": "(National Center for Advancing Translational Sciences (NCATS), 2011)", "note": "Among all 390,000 compounds or so, about 4,000 (1%) were called active. The shares of active, inactive and inconclusive entries below differ from those in the screen. The call rests on the fitted dose curve; in most records, active means well fitted inhibition curve with a large enough effect; inconclusive means small, poorly fitted or top-dose-only effect, or another doubt; inactive means no such curve, though single readings can be large or run the other way. Potencies of inconclusive entries are doubtful fits and often do not repeat. Potency means the concentration at half of the fitted maximal effect."}
{"molecular_target": "DNA polymerase iota (Homo sapiens) (UniProt Q9UNA4)", "test": "qHTS for Inhibitors of Polymerase Iota", "conditions": "Pol iota fluorescent replication assay, 10 min; series mostly up to 115 µM; activity, negative = inhibition: at the top concentration", "in_short": "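Fluorescent replication assay read twice, at 0 min and 10 min after adding 50 nM (final) substrate. Enzyme (10 nM) and compounds were first incubated 15 min at room temperature; enzyme-free buffer wells were negative controls.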"}
{"smiles": "CCOc1ccccc1NC(=O)CCc1nnc2ccc(NCc3ccco3)nn12", "Potency": "active: 50.1 µM"}
{"smiles": "O=C(CSc1n[nH]c(=O)[nH]c1=O)Nc1cccc(S(=O)(=O)N2CCOCC2)c1", "activity, negative = inhibition": "inactive: -23.6%"}
{"smiles": "CC(C)N1C(=O)CCC1C(=O)NCCc1ccc(Cl)cc1", "note": "(centres undefined)", "Potency": "inconclusive: 0.631 µM [inhibitor, full curve, poor fit]"}
{"smiles": "COc1cc(C(CC(=O)Nc2cccc(C(C)=O)c2)N2Cc3ccccc3C2=O)cc(OC)c1OC", "note": "(centres undefined)", "activity, negative = inhibition": "inactive: 16.8%"}
{"smiles": "COc1ccc(C(=O)c2sc3nc(-c4ccc(C)cc4)cc(C(F)(F)F)c3c2N)cc1", "Potency": "inconclusive: 100 µM [inhibitor, single point]"}
{"smiles": "CC(=O)N1CCc2c(sc(NC(=O)Cc3ccc(F)cc3)c2C#N)C1", "Potency": "inconclusive: 0.891 µM [inhibitor, full curve, poor fit]"}
{"smiles": "CSc1ccc(C(c2c(C)[nH][nH]c2=O)c2c(C)[nH][nH]c2=O)cc1", "Potency": "inconclusive: 22.4 µM [inhibitor, partial curve, poor fit]"}
{"smiles": "O=c1c(S(=O)(=O)c2ccccc2)cn(Cc2ccc(F)cc2)c2cc(N3CCOCC3)c(F)cc12", "activity, negative = inhibition": "inactive: -2.51%"}
{"smiles": "O=C(Cc1ccccc1)NC(CSSCC(NC(=O)Cc1ccccc1)C(=O)O)C(=O)O", "note": "(centres undefined)", "Potency": "inconclusive: 11.2 µM [inhibitor, partial curve, poor fit]"}
{"smiles": "O=C(Nc1ccc2c(c1)OCO2)c1cc(C2CC2)on1", "Potency": "inconclusive: 2 µM [inhibitor, partial curve, poor fit]"}
{"smiles": "CC1CCCCN1S(=O)(=O)c1ccc(S(=O)(=O)N2CCN(C)CC2)cc1", "note": "(centres undefined)", "activity, negative = inhibition": "inactive: 112%"}
{"smiles": "COc1ccc(CN2CCN(C(=O)c3cccc4ccccc34)CC2)cc1Br", "activity, negative = inhibition": "inactive: 8.15%"}
{"smiles": "COc1ccccc1N(CCC#N)C(=O)COC(=O)CCC(=O)c1ccc(F)cc1", "Potency": "inconclusive: 3.98 µM [inhibitor, partial curve, poor fit]"}
{"smiles": "CC1=C/C(=C\\C=C(C#N)C#N)N(C)c2ccccc21", "Potency": "inconclusive: 25.1 µM [inhibitor, single point]"}
{"smiles": "N#CC1=C(N)NC(=S)C(C(N)=O)C1c1ccccc1F", "note": "(centres undefined)", "Potency": "inconclusive: 20 µM [inhibitor, partial curve, poor fit]"}
{"smiles": "CC(=O)Nc1ccc(S(=O)(=O)Nc2nc3ccccc3nc2N2CCCC2)cc1", "Potency": "inconclusive: 2.51 µM [inhibitor, full curve, poor fit]"}
{"smiles": "Cc1cccc(Cn2cnc3c(cnn3C(C)(C)C)c2=O)c1F", "activity, negative = inhibition": "inactive: -0.246%"}
{"smiles": "Cc1ccc(-n2cnc3cc(C(=O)NCc4ccc(F)cc4)ccc32)c(C)c1", "activity, negative = inhibition": "inactive: -4.18%"}
{"smiles": "Cc1nc2cc(C(F)(F)F)ccc2n1CCNc1nc(-c2ccc(F)cc2)cs1", "Potency": "inconclusive: 31.6 µM [inhibitor, partial curve, poor fit]"}
